{"source": "patent US7666905B2", "about": "“Compositions comprising hepoxilin analogs and their use in the treatment of cancer” (priority 2002, dated 2010)", "test_system": "cytochrome c", "test": "Western blot of cytosolic cytochrome c release in K562 cells", "assay_type": "cell-based, human", "details": "FIG. 14", "note": "Some results were stated once for a whole list of compounds, not compound by compound. For at least one compound, name, drawing or mass did not settle the structure.", "data": [{"smiles": "CCCCC/C=C\\CC1CC1C(O)/C=C\\C/C=C\\CCCC(=O)OC", "note": "[PBT-3, 10(S)-hydroxy-11,12-cyclopropyl-eicosa-5Z,8Z,14Z-trienoic acid methyl ester]", "values": [{"measurement": "time to release of cytochrome c into the cytoplasm", "value": "≤ 3", "unit": "h"}]}, {"smiles": "Cc1ccc(NC(=O)c2ccc(CN3CCN(C)CC3)cc2)cc1Nc1nccc(-c2cccnc2)n1", "note": "[STI571, Imatinib, reference compound]", "values": [{"measurement": "time to release of cytochrome c into the cytoplasm", "value": "≤ 3", "unit": "h"}]}]}
